Where a name gives a salt, the structure may show the parent alone. Read-outs that look alike come from different tables or passages of the source.
For `COc1cc2c(cc1OC)C(=O)C(CC1CCN(Cc3ccccc3)CC1)C2` (centres unmarked) [donepezil free base, donepezil], the dissolution in water was “not almost dissolved in water”.
In the case of `COc1cc2c(cc1OC)C(=O)C(CC1CCN(Cc3ccccc3)CC1)C2` (centres unmarked) [donepezil hydrochloride], the dissolution in water (hydrochloride) is reported as “dissolution in water”.

From patent publication US20160081990A1 (priority 2013, published 2016)
